These are yes or no findings as the source states them, for the method shown. Binding seen in cells or lysates may run through a third protein. Some results given as binding are weak or reduced against the parent protein; the word gives no strength.
Target: T1, RIM1 (mouse (endogenous in cerebellar synaptosomes)) (UniProt Q99NE5)
T1 sequence: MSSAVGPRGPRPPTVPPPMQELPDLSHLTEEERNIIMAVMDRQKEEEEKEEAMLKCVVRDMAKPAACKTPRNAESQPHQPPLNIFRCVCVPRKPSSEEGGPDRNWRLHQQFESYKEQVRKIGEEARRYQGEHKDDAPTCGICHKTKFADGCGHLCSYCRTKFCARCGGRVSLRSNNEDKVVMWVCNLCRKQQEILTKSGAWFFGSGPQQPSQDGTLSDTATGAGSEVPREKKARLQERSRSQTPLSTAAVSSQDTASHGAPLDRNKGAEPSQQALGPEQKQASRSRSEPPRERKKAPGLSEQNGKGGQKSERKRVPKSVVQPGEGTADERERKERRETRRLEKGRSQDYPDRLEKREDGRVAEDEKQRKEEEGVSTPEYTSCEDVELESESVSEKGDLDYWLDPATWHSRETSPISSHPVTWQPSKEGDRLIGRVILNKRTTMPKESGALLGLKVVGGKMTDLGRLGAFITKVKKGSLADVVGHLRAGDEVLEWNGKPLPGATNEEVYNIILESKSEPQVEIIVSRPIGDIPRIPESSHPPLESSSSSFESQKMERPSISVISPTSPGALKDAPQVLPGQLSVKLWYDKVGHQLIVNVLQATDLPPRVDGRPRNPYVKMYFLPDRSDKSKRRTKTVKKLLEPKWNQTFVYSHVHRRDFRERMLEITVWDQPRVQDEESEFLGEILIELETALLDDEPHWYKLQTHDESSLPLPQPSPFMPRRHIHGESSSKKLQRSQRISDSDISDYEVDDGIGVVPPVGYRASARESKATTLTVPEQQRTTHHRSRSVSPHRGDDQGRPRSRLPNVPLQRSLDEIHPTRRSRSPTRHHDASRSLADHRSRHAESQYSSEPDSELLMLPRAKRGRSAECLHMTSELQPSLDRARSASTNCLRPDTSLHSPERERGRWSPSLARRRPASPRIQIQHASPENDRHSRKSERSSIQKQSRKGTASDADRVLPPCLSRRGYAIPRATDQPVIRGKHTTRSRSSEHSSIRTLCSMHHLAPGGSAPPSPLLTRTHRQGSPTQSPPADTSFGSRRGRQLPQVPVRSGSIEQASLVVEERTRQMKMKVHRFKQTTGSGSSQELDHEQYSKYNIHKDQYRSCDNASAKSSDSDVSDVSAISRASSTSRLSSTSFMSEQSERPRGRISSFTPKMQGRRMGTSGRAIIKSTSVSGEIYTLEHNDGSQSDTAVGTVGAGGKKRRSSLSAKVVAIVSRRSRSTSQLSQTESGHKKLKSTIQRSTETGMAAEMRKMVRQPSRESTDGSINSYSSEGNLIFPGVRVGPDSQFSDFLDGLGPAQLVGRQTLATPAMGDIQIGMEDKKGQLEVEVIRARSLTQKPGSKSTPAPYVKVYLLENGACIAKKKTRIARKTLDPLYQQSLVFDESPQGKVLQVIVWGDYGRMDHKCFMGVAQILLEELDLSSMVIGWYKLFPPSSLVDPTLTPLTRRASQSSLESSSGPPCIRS
Assay: co-IP; lysate of mouse cerebellar synaptosomes (P21) incubated with anti-RIM1 antibody precoupled to GammaBind Plus Sepharose, western blot; rabbit IgG as negative control; also done with synaptosomes of Rapgef3/4-dKO and Prkce-cKO mice and after 8-pCPT (20 μM, 30 min), 8-pCPT + εV1-2 (5 µM, 30 min) or FR236924 (200 nM, 30 min)

B1: Rab3A (protein, UniProt P63011 1-220)
chain: MASATDSRYGQKESSDQNFDYMFKILIIGNSSVGKTSFLFRYADDSFTPAFVSTVGIDFKVKTIYRNDKRIKLQIWDTAGQERYRTITTAYYRGAMGFILMYDITNEESFNAVQDWSTQIKTYSWDNAQVLLVGNKCDMEDERVVSSERGRQLADHLGFEFFEASAKDNINVKQTFERLVDVICEKMSESLDTADPAVTGAKQGPQLTDQQAPPHQDCAC
- binding: binds

— article PMC10171863
